Results on one substance are retold here after PMC10851605.

The chains behind the UniProt entries cited, without tags or fusion partners.
UniProt P29350: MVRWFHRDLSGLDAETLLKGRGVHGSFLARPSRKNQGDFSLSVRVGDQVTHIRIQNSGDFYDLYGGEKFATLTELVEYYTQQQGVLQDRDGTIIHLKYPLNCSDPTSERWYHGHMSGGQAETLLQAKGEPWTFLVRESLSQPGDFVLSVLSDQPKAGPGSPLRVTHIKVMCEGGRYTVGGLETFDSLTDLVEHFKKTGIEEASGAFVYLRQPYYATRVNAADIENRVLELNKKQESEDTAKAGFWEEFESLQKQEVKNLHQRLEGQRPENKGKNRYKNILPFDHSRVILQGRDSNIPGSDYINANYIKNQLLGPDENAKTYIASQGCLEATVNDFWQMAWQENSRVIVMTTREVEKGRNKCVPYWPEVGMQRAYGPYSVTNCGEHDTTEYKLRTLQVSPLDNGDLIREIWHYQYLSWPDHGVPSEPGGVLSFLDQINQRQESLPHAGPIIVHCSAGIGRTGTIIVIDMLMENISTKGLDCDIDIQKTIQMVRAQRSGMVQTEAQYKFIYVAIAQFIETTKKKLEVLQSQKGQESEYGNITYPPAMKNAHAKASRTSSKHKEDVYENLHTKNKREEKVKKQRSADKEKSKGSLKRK
UniProt P14618: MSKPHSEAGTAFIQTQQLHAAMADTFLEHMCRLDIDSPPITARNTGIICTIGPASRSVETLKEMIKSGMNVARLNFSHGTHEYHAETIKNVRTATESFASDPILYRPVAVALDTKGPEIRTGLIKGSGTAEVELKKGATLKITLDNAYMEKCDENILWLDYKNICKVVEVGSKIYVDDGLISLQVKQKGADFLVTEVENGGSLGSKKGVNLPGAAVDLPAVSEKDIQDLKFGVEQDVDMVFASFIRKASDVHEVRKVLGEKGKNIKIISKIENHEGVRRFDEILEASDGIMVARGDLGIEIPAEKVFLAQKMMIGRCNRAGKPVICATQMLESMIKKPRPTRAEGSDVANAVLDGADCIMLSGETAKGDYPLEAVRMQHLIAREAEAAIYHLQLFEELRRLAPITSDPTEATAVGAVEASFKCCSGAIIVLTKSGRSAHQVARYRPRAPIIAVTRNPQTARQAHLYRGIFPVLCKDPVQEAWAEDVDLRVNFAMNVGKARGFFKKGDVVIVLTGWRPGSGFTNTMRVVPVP

No constants are given. Whether binding was seen depends on the method and setting. In cells and extracts the contact can be indirect. These calls come from enrichment with a bait or labelling near it, and not all partners need be listed.

This experiment deals with SHP1 (human (endogenous in Jurkat)) (UniProt P29350). In words: affinity purification with mass spectrometry; endogenous SHP1 captured with SHP1 antibody on protein A/G agarose beads from lysate of Jurkat cells treated with P5C; bound proteins identified by LC/MS-MS.

“pyruvate kinase M2 (PKM2) (from UniProt P14618 1-531) (enzyme)”: the binding entry was “binds”.
